Measured values published in patent US20240398895A1 (priority 2020, published 2024).

System: 56NEPHREX rats (subtotal 5/6th nephrectomy) fed a high phosphate diet
Assay: Serum chemistries after 28-day ASARM infusion in the subtotal 5/6th nephrectomy CKD-MBD rat model
Type: in vivo
Method: To show ASARM can treat kidney disease, a Wister rat subtotal ⅚th nephrectomy experimental CKD-MBD model (NEPHREX) was used and sham operated rats (SHAM) were used as controls. Male rats (16 week, 250 gm) were fed a high phosphate diet to worsen mineral metabolism defects (2% P, 2000 IU Vit D and 0.8% Ca; Teklad #170496; Envigo envigo.com/teklad). Protocol and rat numbers for osmotic pump (Alzet) infusion of ASARM-peptide, and intravenous injection are determined. Pump infusion with ASARM peptide or vehicle was carried out for 28 days and rats were maintained on a high phosphate diet.
Ten days after 5/6 nephrectomy or sham operations, rats were subjected to the following protocols. There were 6 SHAM operated rates with no ASARM, but with vehicle and high phosphate diet. There were 10 CKD-MBD model rates administered ASARM without a vehicle, but with high phosphate diet. There were 12 CKD-MBD model rates without ASARM, but with vehicle and high phosphate diet. The biological samples of blood and urine were taken from the rats at 5 days post-surgery, blood was taken at 12 days. At day 12, the infusion of ASARM began, with blood and urine being collected at day 24, blood being taken at day 35, and then blood, urine, and necropsy at day 47.
Continuous infusion (28 days) of ASARM peptide and vehicle was undertaken using subcutaneous transplantation of alzet osmotic-pumps (Durect Corporation, Cupertino California). Pump models 2ML4 (28 day model; infusion rate 2.5 uL/hr) were used. The pumps were implanted in rats anesthetized with isoflurane. An ASARM peptide pump infusion rate of 8.4 nmols/kg/hr or 5.1×10^15 molecules/kg/hr) was used for 28 days. This flow rate is based on prior results and consistent with known circulating levels of ASARM-peptides in HYP and wild type rodents. Animals were housed individually, and food intake monitored to assess whether treatments affect appetite. The diet (TEKLAD #170496) was high in non-phytates inorganic phosphate (Pi). Specifically, the high phosphate diet (HPO4) consist of 2% Pi and 2000 U of vitamin D (Teklad, 170496).
Serum Pi, calcium, fractional excretion of phosphate, FGF23, KLOTHO, PTH, 1,25 Vit-D3, osteopontin, immunohistology, MEPE and analyses were carried out as described previously [Zelenchuk, L V, et al., Age dependent regulation of bone-mass and renal function by the MEPE ASARM-motif. Bone, 79:131-142, 2015; Zelenchuk, L, et al., SPR4-peptide Alters Bone Metabolism of Normal and HYP Mice. Bone, 72:23-33, 2015; Zelenchuk, L V, et al., PHEX Mimetic (SPR4-Peptide) Corrects and Improves HYP and Wild Type Mice Energy-Metabolism. PLOS One, 9: e97326, 2014; David, V, et al., ASARM peptides: PHEX-dependent & independent regulation of serum phosphate. […]

[1] = 56NEPHREX rats, high phosphate diet, 28 days infusion

NH2-RDDSSESSDSGS-(PO3H2)SS-(PO3H2) ES-(PO3H2) DGD-OH (RDDSSESSDSGSSSESDGD; phosphoserines; N-terminal amine, C-terminal acid; Description of Unknown: ASARM sequence; MOD_RES 12 Phosphoserine (Ser(PO3H2)); MOD_RES 14 Phosphoserine (Ser(PO3H2)); MOD_RES 16 Phosphoserine (Ser(PO3H2))) [ASARM peptide, small, phosphorylated peptide (2.2 kDa) from the MEPE ASARM motif]
serum cholesterol (56NEPHREX rats over the 28 days): remained unchanged | serum FGF23 levels [1]: remained high | serum PTH levels [1]: high serum PTH levels | serum uric acid levels (all groups after 28 days): no significant differences
